By UniProt entry, the sequences of proteins in these tests, tags left out. Residues count along the entry.
UniProt Q6PB66, residues 60-1392: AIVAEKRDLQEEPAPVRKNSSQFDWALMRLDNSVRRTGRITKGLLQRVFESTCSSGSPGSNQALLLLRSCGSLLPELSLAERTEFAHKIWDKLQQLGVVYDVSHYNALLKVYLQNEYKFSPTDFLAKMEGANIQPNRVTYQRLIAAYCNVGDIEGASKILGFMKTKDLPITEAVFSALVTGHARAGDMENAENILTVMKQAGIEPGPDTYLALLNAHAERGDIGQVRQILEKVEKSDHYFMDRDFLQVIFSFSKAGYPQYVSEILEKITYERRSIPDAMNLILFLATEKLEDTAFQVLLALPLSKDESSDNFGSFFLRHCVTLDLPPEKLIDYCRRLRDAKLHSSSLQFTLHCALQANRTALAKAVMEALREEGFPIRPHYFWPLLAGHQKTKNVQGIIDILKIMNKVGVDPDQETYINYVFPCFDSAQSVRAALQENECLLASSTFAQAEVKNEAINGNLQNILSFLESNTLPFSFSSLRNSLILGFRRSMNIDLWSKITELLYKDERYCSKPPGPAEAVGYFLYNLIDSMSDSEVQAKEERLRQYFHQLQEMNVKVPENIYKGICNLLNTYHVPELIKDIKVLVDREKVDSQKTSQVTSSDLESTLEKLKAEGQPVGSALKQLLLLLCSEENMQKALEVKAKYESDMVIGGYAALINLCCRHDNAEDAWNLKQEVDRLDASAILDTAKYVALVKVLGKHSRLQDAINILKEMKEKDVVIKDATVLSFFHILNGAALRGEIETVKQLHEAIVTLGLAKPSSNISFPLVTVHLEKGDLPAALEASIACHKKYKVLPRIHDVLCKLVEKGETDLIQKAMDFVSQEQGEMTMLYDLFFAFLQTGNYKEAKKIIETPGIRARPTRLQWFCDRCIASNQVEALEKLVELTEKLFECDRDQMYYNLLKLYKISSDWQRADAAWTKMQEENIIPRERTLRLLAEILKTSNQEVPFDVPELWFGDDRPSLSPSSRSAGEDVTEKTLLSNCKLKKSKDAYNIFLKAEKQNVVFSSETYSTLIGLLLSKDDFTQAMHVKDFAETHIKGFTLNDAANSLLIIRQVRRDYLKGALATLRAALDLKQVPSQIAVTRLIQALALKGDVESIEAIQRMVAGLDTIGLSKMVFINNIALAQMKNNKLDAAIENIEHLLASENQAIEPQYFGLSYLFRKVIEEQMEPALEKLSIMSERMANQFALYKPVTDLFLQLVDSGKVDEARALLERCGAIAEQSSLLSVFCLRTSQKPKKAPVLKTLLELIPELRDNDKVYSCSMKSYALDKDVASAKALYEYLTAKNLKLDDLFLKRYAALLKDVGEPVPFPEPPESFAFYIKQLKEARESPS
UniProt Q8BKF1, residues 42-1207: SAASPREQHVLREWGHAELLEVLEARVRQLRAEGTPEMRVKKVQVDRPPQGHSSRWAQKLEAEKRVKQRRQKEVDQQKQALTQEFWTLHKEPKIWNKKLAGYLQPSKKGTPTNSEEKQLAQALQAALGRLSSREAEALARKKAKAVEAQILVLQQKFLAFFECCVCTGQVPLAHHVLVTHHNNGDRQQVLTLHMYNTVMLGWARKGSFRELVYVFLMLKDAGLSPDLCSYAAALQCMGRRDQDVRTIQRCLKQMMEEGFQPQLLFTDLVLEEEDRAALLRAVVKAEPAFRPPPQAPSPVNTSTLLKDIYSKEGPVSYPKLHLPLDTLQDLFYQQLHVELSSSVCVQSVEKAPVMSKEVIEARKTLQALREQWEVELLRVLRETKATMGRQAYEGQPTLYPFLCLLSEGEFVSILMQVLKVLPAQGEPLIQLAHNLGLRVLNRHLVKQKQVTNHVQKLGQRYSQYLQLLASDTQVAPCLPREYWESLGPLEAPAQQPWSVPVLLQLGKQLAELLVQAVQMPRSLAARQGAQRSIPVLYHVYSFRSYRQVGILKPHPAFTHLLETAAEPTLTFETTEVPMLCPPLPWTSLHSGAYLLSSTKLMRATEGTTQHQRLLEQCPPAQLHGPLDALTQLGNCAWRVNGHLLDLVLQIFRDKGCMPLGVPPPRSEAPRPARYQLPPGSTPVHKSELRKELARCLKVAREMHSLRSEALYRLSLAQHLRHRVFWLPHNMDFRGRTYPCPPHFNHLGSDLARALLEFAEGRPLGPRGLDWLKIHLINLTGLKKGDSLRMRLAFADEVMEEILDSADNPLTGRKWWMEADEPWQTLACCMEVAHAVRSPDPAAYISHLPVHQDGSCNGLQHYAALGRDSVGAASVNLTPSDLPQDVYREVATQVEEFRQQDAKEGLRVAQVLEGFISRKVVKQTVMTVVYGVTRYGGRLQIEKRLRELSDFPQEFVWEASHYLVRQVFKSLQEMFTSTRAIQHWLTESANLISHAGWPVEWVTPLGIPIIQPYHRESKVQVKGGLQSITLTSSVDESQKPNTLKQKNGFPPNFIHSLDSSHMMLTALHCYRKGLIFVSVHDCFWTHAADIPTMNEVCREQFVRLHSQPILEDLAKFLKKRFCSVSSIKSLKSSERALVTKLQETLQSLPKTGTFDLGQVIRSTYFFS

According to publication PMC3668712:

Molecular target: mouse LRPPRC-FLAG (mouse) (UniProt Q6PB66)
Assay: affinity purification with mass spectrometry; anti-FLAG M2 affinity gel on mitochondrial extracts from liver, kidney and heart of LRPPRC-FLAG BAC transgenic mice; lysis buffer B; mass spectrometry

Substance: mouse POLRMT (from UniProt Q8BKF1 42-1207)
- binding: no binding

No constants are given. Whether binding was seen depends on the method and setting. In cells and extracts the contact can be indirect. Here binding means that the protein was enriched with, or labelled near, the bait; the list need not be complete. A no says only that the protein was not detected with the bait.
